From the RNAGym collection of RNA variant scans (doi:10.1126/science.aae0568)
This sample is rich in variants without activity.

B1: tRNA (parent)
chain: GUUCCGUUGGCGUAAUGGUAACGCGUCUCCCUCCUAAGGAGAAGACUGCGGGUUCGAGUCCCGUACGGAACG

Variants of: B1
Test: yeast fitness relative to wild type (ratio to wild type); higher = fitter; tRNA-Arg(CCU), competitive growth, 37 C, YPD
In short: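 Start and end populations of a pooled competition were compared by 100-nucleotide paired-end sequencing of gene amplicons. The Saccharomyces cerevisiae strains carried tRNA-Arg(CCU) gene variants at the native genomic locus, synthesised with a 3% per-site mutation rate at 69 sites, and competed in YPD at 37°C for 24 hours in six parallel replicates. Darwinian fitness relative to wild type was based on the change in genotype frequencies. Genotypes required ≥ 100 starting reads, and estimates < 0.5 were set to 0.5.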
Variant GUUCGGUUGGCGUAAUGGUAUCGCGUCUCCCUCCUAAGGAGAACACUGCGGGUUCGGGUCCCGUAUGGAUCG has a yeast fitness of no more than 0.5.
With GUUCUGUUGGCGAAAUGGUAACGCGUCUCCCUCCUAAGGAGAAGACUGCGGGUUCGAGUCUCGUACGGAACG the yeast fitness was 0.624.
With GUUCCGCUGGCGUAAUGGUAACGCGUCUCCCUCCUAAGGAGAAGAUUGCGGGUUCGAGUCACGUACAGAACG the yeast fitness was 0.561.
Variant GUUCCGUUGGCGUAAUGGUAACGCGUCUCCCUGCUAAGGGGCAGACUGCGGGUUCGAGUCCCGUACGGAACG has a yeast fitness of no more than 0.5.
For GUUCCGUUGGCGUAAUGGUAACGCGUCUCCCUCCUAAGGAGAAGACUGCGGGUUCGUGUCCCAUACGGAUCG, the yeast fitness was no more than 0.5.
GUUCCGUAGGCGUAAUGGUUACGCGUCUCCCUCCUAAGGAGAAGACUGCGGGUUCGAGUCCCCUAGGGAACG showed a yeast fitness of no more than 0.5.
With GUUCCGAUGGCGUAAUGGUAACGCGUCUCCUUCCUAAGGAGAGGACUGCGGGUUCGAGACCCGUACGGAACG the yeast fitness was no more than 0.5.
Work on GUUCCGUUGGCGUAAUGGUCACGCGUCUCCCUCCUAAGGAGAAGAUUGCCGGUUCGAGUCCCGUACGGAACG yielded a yeast fitness of no more than 0.5.
In the case of GUUCCGUUGGCGUAAUGGUAACGCGUCUCCCUCCUAAGGAGCAGACUGCCGGUUCGAGUCCCGUACGCAACG, the yeast fitness is reported as no more than 0.5.
Variant GUUCCGUUGGCGUAAUGGUAACGCGUCUCGCUCCUAAGGAGAAGAAUGCGGGUUCGAGUCCCGUACGGAGCG has a yeast fitness of 0.591.
With GUUGGGUUGGCGUAAUGGAAACGCGUCUCCAUCCUAAGGAGAAGACAGCGGGUUCGAGUCCCGUACGGAACG the yeast fitness was no more than 0.5.
In the case of GUUCCAUUGGCGUAAUGGUAACGCGUCUCCCUCCUAAAGAGAAGACUGCGGGUUCGAGUCACGUACGGAACG, the yeast fitness is reported as no more than 0.5.
Variant GUUCCGUUGGCGUAAUGGUAACGCGUCUCCCUCCUAAGGAGAACACUGCGGGUUCGCGUCCCGUACGCAACG has a yeast fitness of no more than 0.5.
GUUCCGUUGGCGUAAUGGUAACGCGUCUCCCUCCUAAGGAGAAGAUUGCGGGUCCAAGUCCCGUACGGAACG showed a yeast fitness of 0.642.
GUUCCGUUGCCGUAAUGGUAACGCGUCUCCCUCCUAAGGAGAAGACGGCGGGUUCGGGUCCCGUACGGAACG showed a yeast fitness of no more than 0.5.
GUUCCGUUAACGUAAUGGUAACGCGUCUCCCUCCUAAGGAGAAGACUGCGGGUUAGAGUCCCGUUCCGAACG gave a yeast fitness of 0.506.
Work on GUUCCGUUGGCGUAAUGGUAACGGGUCUCCCUCCUAAGGAGAAGACUGCAGAUUCGAGUCCCGUAUGGAACG yielded a yeast fitness of no more than 0.5.
In the case of GUUCCGUUGCCGUAAUGGUAAAGGGUCUCCCUCCUAAGGAGAAGACUGCGGGUUCGAGUCCCGUCUGGAACG, the yeast fitness is reported as no more than 0.5.
With GUUCCGUUGGCGUAAUGGUAAAGCGUCUCCCUCCUAAGGAGAAGAGUGCGGAUUCGAGUCCCGUUCGGAACG the yeast fitness was no more than 0.5.
In the case of GUUCCGUGGGCGUAAUGGUAACGGGUCUCCCUCCUAAGGAGAAGACUGCGGGUUCGAGUCGCGUACGGAACG, the yeast fitness is reported as no more than 0.5.
In the case of GUUCCGUUGGUGUAAUGGAAACGCGUCUCCCUCCUAAGGAGAAGACUGCGGGUUCGAGAUCCGUACGGAACG, the yeast fitness is reported as no more than 0.5.
For GAUCCGUUGGCGUUAUGGUAGCGCGUCUCCCUCCUAAGGAGAAGACUGCGGGUUCGAGUCCCGUACGGAACG, the yeast fitness was no more than 0.5.
Work on GUUCCGUUGGCGUAAUGGUAACGCGUCUCCCUCCUAAGGACAAGACUGCGGGUUCGAGUCCCGUAAGGAACG yielded a yeast fitness of 0.621.
GUUCCGUUGGCGUAAUGGUGACGCGUCUCCCUCGUAAGGAGAAGACCGGGGGUUCGAGUCUCGUACGGGACG showed a yeast fitness of no more than 0.5.
For GUUCCGUUGGCGUAAUGGUUACGCGUCUCCCUCCUAAGGAGAAGACUGCGGGUUCGAGUCCCGUACAGAACG, the yeast fitness was 0.657.
In the case of GUUCCGUUGGCGUAAUGGUAACGUGUCUCCCAGCUAAGGAGAAGACUGUGGGAUCGAGUCCCGUAUGGAUCG, the yeast fitness is reported as no more than 0.5.
In the case of GUUCCGUUGGCGCAAUGGUAACGCGUCUCCCUCCUAAGGAGAUGACUGCGGGUUCAAGUCCCGUACGGAACG, the yeast fitness is reported as 0.797.
GCUCCGUUUGCAUAAUGGUCACGCGUCUCCCUCCUAAGGAGAAGACUGCGGGUUCGGGUCCCGUCCGGAACG showed a yeast fitness of no more than 0.5.
Work on GUUCCGUUGGCGUAAUGGUAACGCGUCUCCCUCCUCUGGAGAAGACUGCGGGUUCGAGUCCCGUAAGGAACG yielded a yeast fitness of no more than 0.5.
In the case of GUUCCGCUGGCGUAAUGGUAACGCGUCUCCCUCCUAAGGAGAAGACUGCGGGUUCGAGUCCCGUACUGAACG, the yeast fitness is reported as 0.847.
For GUUCCGUUGGCGUAAUGGUAACGCGUCUCCCUCCUAGGGAGAAGACUGCGGGUCCGAGUCCUGUACGCAACG, the yeast fitness was no more than 0.5.
In the case of GUUCCGUUGGCGUAAUGGUAACGCGUCUCCCUCCUAAGGAGAAGACUGCGGAUUCGAGUCCCAUACGGCACG, the yeast fitness is reported as no more than 0.5.
Work on GUUCCGUUGGCGUUAUGGUAACGCGUCUCCCUCCUAAGGAGAAGACUGAGGGUUGCAGUCCCGUACGGAACG yielded a yeast fitness of no more than 0.5.
In the case of GUUCAGUCGGCGUAAUGGUAGCGCGUCUCCCUCCUAAGGAGAAGCCUGCGGGUUCCAGUCCCGUACGGUACG, the yeast fitness is reported as no more than 0.5.
In the case of GUUGCGUUGGAGUAAUGGUAACGCGUCUCCCUCCAAAGGAGAAGACUGUGGGUUCGAGUCCCGUACUGAACG, the yeast fitness is reported as no more than 0.5.
With GUUCCGUUGGCGUAAUGGUAACGCGUCUCCCUCCUAAGGAAAAGACUGCGGGUUGGAGUCCUGUAUGGAACG the yeast fitness was no more than 0.5.
Work on GAUCCGUUGGCGUAAUGGUAACGCGUCUCCCUCCUAAGGAGAAGACGGAGGGUUCGAGUUCCGUCCGGAACG yielded a yeast fitness of no more than 0.5.
